PubChem BioAssay AID1259405 | NCATS | 2018
Here is one part, drawn at random, of about 50,000 reagents tested. About 4,000 of all reagents (8%) were called active. 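Mouse siRNA library applied to hamster cells; one well for each siRNA.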 A number with no mark means an inactive call.

- Aim: 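Mouse-designed siRNAs used to find CHO productivity engineering targets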 (primary screen)
- Cells: Chinese hamster CHO-K1 ovary cells with stable secreted eGFP expression
- Reagent: single siRNA against mouse genes, 0.8 pmol siRNA per well (2 µl of 400 nM stock)
- Duration: 3 days
- Measured: 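Per-well intracellular GFP measured by laser scanning cytometry, plus viability from ATP luminescence, each relative to plate median of non-targeting control wells, in %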
- Direction: GFP, % of control: higher = more GFP per well, higher productivity; viability (ATP), % of control: higher = more viable cells (more ATP)
- Call rule: 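Called active when intracellular GFP, relative to negative control, is at or above 120%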

The first 3 entries, to show the layout:
Gdap10 (ganglioside-induced differentiation-associated-protein 10) [SID363540109] — GFP, % of control: 45.6; viability (ATP), % of control: 79.6
Gdap10 (ganglioside-induced differentiation-associated-protein 10) [SID363561410] — GFP, % of control: 33.9; viability (ATP), % of control: 61.5
Gdap10 (ganglioside-induced differentiation-associated-protein 10) [SID363564446] — GFP, % of control: 57.5; viability (ATP), % of control: 42.1

The list itself, from the first entry:
Gdap10 (ganglioside-induced differentiation-associated-protein 10) [SID363540109] — GFP, % of control: 45.6; viability (ATP), % of control: 79.6
Gdap10 (ganglioside-induced differentiation-associated-protein 10) [SID363561410] — GFP, % of control: 33.9; viability (ATP), % of control: 61.5
Gdap10 (ganglioside-induced differentiation-associated-protein 10) [SID363564446] — GFP, % of control: 57.5; viability (ATP), % of control: 42.1
Noa1 (nitric oxide associated 1) [SID363543985] — GFP, % of control: 98.5; viability (ATP), % of control: 84.9
Noa1 (nitric oxide associated 1) [SID363551721] — GFP, % of control: 37; viability (ATP), % of control: 51
Noa1 (nitric oxide associated 1) [SID363559326] — GFP, % of control: 85.5; viability (ATP), % of control: 82.7
Rwdd1 (RWD domain containing 1) [SID363554942] — GFP, % of control: 63.3; viability (ATP), % of control: 60.2
Rwdd1 (RWD domain containing 1) [SID363568389] — GFP, % of control: 69.9; viability (ATP), % of control: 63
Rwdd1 (RWD domain containing 1) [SID363586448] — GFP, % of control: 70.3; viability (ATP), % of control: 68.3
Orc4 (origin recognition complex, subunit 4) [SID363569158] — GFP, % of control: 57.2; viability (ATP), % of control: 43
Orc4 (origin recognition complex, subunit 4) [SID363583590] — GFP, % of control: 82.9; viability (ATP), % of control: 83.8
Cd209c (CD209c antigen) [SID363544331] — GFP, % of control: 98.1; viability (ATP), % of control: 68.4
Cd209c (CD209c antigen) [SID363550659] — GFP, % of control: 26.9; viability (ATP), % of control: 50.2
Cd209c (CD209c antigen) [SID363557208] — GFP, % of control: 34.6; viability (ATP), % of control: 24.8
Mapk8ip3 (mitogen-activated protein kinase 8 interacting protein 3) [SID363555413] — GFP, % of control: 63.8; viability (ATP), % of control: 62
Mapk8ip3 (mitogen-activated protein kinase 8 interacting protein 3) [SID363564074] — GFP, % of control: 70.9; viability (ATP), % of control: 80.9
Mapk8ip3 (mitogen-activated protein kinase 8 interacting protein 3) [SID363587620] — GFP, % of control: 96.7; viability (ATP), % of control: 88.7
Dop1b (DOP1 leucine zipper like protein B) [SID363543823] — GFP, % of control: 70.2; viability (ATP), % of control: 80
Dop1b (DOP1 leucine zipper like protein B) [SID363551559] — GFP, % of control: 67.9; viability (ATP), % of control: 63.6
Dop1b (DOP1 leucine zipper like protein B) [SID363559164] — GFP, % of control: 80.3; viability (ATP), % of control: 66.3
Ppp1r21 (protein phosphatase 1, regulatory subunit 21) [SID363540819] — GFP, % of control: 103; viability (ATP), % of control: 102
Ppp1r21 (protein phosphatase 1, regulatory subunit 21) [SID363543270] — GFP, % of control: 124 (active); viability (ATP), % of control: 102
Ppp1r21 (protein phosphatase 1, regulatory subunit 21) [SID363552763] — GFP, % of control: 80.7; viability (ATP), % of control: 79.2
Paqr7 (progestin and adipoQ receptor family member VII) [SID363571166] — GFP, % of control: 83.3; viability (ATP), % of control: 88.4
Paqr7 (progestin and adipoQ receptor family member VII) [SID363571518] — GFP, % of control: 90.1; viability (ATP), % of control: 82.9
Paqr7 (progestin and adipoQ receptor family member VII) [SID363571870] — GFP, % of control: 68; viability (ATP), % of control: 68.8
Rsad1 (radical S-adenosyl methionine domain containing 1) [SID363568744] — GFP, % of control: 79.5; viability (ATP), % of control: 80.7
Rsad1 (radical S-adenosyl methionine domain containing 1) [SID363576136] — GFP, % of control: 35.4; viability (ATP), % of control: 42.8
Rsad1 (radical S-adenosyl methionine domain containing 1) [SID363578952] — GFP, % of control: 67.6; viability (ATP), % of control: 59.5
Tulp4 (TUB like protein 4) [SID363556558] — GFP, % of control: 99.1; viability (ATP), % of control: 61.7
Tulp4 (TUB like protein 4) [SID363563462] — GFP, % of control: 81.3; viability (ATP), % of control: 51.6
Tulp4 (TUB like protein 4) [SID363587008] — GFP, % of control: 72.8; viability (ATP), % of control: 81.4
Tex47 (testis expressed 47) [SID363542534] — GFP, % of control: 118; viability (ATP), % of control: 87.9
Tex47 (testis expressed 47) [SID363552025] — GFP, % of control: 127 (active); viability (ATP), % of control: 67.1
Tex47 (testis expressed 47) [SID363559630] — GFP, % of control: 74.1; viability (ATP), % of control: 101
Igf2r (insulin-like growth factor 2 receptor) [SID363568934] — GFP, % of control: 105; viability (ATP), % of control: 133
Igf2r (insulin-like growth factor 2 receptor) [SID363576326] — GFP, % of control: 68.3; viability (ATP), % of control: 53.5
Igf2r (insulin-like growth factor 2 receptor) [SID363579142] — GFP, % of control: 88.1; viability (ATP), % of control: 31.8
Trp53 (transformation related protein 53) [SID363573764] — GFP, % of control: 104; viability (ATP), % of control: 136
Trp53 (transformation related protein 53) [SID363581508] — GFP, % of control: 18.2; viability (ATP), % of control: 53.5
Trp53 (transformation related protein 53) [SID363583972] — GFP, % of control: 69.5; viability (ATP), % of control: 109
